Laboratory results: PubChem BioAssay AID686937 (Drosophila RNAi Screening Center, 2013)

Test: 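Genes in the fly needed for secretion of protein constitutively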 (primary screen)
System: Drosophila S2 cells expressing secreted horseradish peroxidase
Reagents: long dsRNA against Drosophila genes
Timing: about 5.5 days (5 days dsRNA, then 12 h reporter induction)
Conditions: reporter expression induced after 5 days of dsRNA, read 12 h later; inducer not stated
Measurement: 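After 5 days of dsRNA and 12 h of reporter induction, medium peroxidase read by chemiluminescence and scored as per-plate z-score; higher values mean more reporter released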
Direction: z-score: higher = more reporter secreted into medium
In all, the deposit lists about 23,000 reagents; shown is a random part of those that have a named target and a result. 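Reduced-secretion tags in replicate 1 do not always agree with the z-scores; no criterion for assigning the tags was given.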 Not all columns of the deposit are shown. Not given: the amount of reagent.

CG10561 [DRSC02068]
- z-score, replicate 1: 0.24

Pgk (Phosphoglycerate kinase) [DRSC00769]
- z-score, replicate 1: -0.07

Chpf (Chondroitin polymerizing factor) [DRSC19491]
- z-score, replicate 1: 0.38

Chpf (Chondroitin polymerizing factor) [DRSC19893]
- z-score, replicate 1: 0.31

CG11608 [DRSC14334]
- z-score, replicate 1: 0.22

MtnD (Metallothionein D) [DRSC22733]
- z-score, replicate 1: 0.09

RpL32 (Ribosomal protein L32) [DRSC16835]
- z-score, replicate 1: -3.53

5-HT2B (5-hydroxytryptamine (serotonin) receptor 2B) [DRSC16360]
- z-score, replicate 1: 0.42

5-HT2B (5-hydroxytryptamine (serotonin) receptor 2B) [DRSC16362]
- z-score, replicate 1: 0.41

CG13367 [DRSC18485]
- z-score, replicate 1: 0.6

CG13367 [DRSC18486]
- z-score, replicate 1: 0.51

obst-B (obstructor-B) [DRSC01987]
- z-score, replicate 1: 0.38

CG15544 [DRSC15082]
- z-score, replicate 1: 0.21

CG15255 [DRSC01869]
- z-score, replicate 1: -0.03

alphaTub84B (alpha-Tubulin at 84B) [DRSC12622]
- z-score, replicate 1: -2.84

Sec5 (Secretory 5) [DRSC00714]
- z-score, replicate 1: 0.31

vih (vihar) [DRSC09778]
- z-score, replicate 1: -0.33

dpn (deadpan) [DRSC07605]
- z-score, replicate 1: 0.11

RPA2 (Replication protein A2) [DRSC03184]
- z-score, replicate 1: 0.2

dbr (debra) [DRSC00274]
- z-score, replicate 1: 0.4

Alg7 [DRSC02833]
- z-score, replicate 1: 0.1

Alg7 [DRSC02834]
- z-score, replicate 1: -0.35

CG11854 [DRSC14409]
- z-score, replicate 1: 0.39

CG2871 [DRSC18230]
- z-score, replicate 1: 0.43

CG2871 [DRSC21719]
- z-score, replicate 1: 0.05

CG4042 [DRSC11751]
- z-score, replicate 1: 0.29

Wnt10 (Wnt oncogene analog 10) [DRSC00990]
- z-score, replicate 1: -0.2

Wnt10 (Wnt oncogene analog 10) [DRSC02797]
- z-score, replicate 1: 0.33

IntS12 (Integrator 12) [DRSC15818]
- z-score, replicate 1: 0.67

Cks85A (Cyclin-dependent kinase subunit 85A) [DRSC16562]
- z-score, replicate 1: -0.01

CG9777 [DRSC20208]
- z-score, replicate 1: 0.34

flfl (falafel) [DRSC16474]
- z-score, replicate 1: 0.52

CG3739 [DRSC15510]
- z-score, replicate 1: 0.37

CG5376 [DRSC15782]
- z-score, replicate 1: -2.15

CG3045 [DRSC04331]
- z-score, replicate 1: 0.25

Delta [DRSC16648]
- z-score, replicate 1: 0.38

Gclc (Glutamate-cysteine ligase catalytic subunit) [DRSC18666]
- z-score, replicate 1: 0.21

Pabp2 [DRSC07501]
- z-score, replicate 1: -3.95

fzy (fizzy) [DRSC03534]
- z-score, replicate 1: -4.19

CG9903 [DRSC20213]
- z-score, replicate 1: 0.44

Rdl (Resistant to dieldrin) [DRSC08967]
- z-score, replicate 1: 0.34

Rdl (Resistant to dieldrin) [DRSC11264]
- z-score, replicate 1: 0.47

Gnpnat (Glucosamine-phosphate N-acetyltransferase) [DRSC15405]
- z-score, replicate 1: 0.27

CG7650 [DRSC10898]
- z-score, replicate 1: 0.67

rush (rush hour) [DRSC18568]
- z-score, replicate 1: 0.17

CG3222 [DRSC10355]
- z-score, replicate 1: 0.23

sev (sevenless) [DRSC20372]
- z-score, replicate 1: 0.39

CG34353 [DRSC14493]
- z-score, replicate 1: 0.5

CG34353 [DRSC14517]
- z-score, replicate 1: 0.4

CG34353 [DRSC14563]
- z-score, replicate 1: 0.45

CG34353 [DRSC15837]
- z-score, replicate 1: 0.31

CG34353 [DRSC22429]
- z-score, replicate 1: -0.34
